{"sequences": {"note": "The chains behind the UniProt entries cited, without tags or fusion partners.", "UniProt P00441, whole entry": "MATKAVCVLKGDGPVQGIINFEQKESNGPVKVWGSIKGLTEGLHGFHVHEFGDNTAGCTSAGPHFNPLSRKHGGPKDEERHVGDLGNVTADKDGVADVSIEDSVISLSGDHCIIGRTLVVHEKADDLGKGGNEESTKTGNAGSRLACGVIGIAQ"}, "source": "paper doi:10.1101/2025.08.11.669663", "note": "These are yes or no findings as the source states them, for the method shown. Binding seen in cells or lysates may run through a third protein. Here binding means that the protein was enriched with, or labelled near, the bait; the list need not be complete. A no says only that the protein was not detected with the bait.", "data": [{"biological_target": "HA-tagged SOD1 (UniProt P00441)", "assay": "affinity purification with mass spectrometry", "values": [{"binder": "catalase (CAT) (protein, UniProt P04040 1-527) MADSRDPASDQMQHWKEQRAAQKADVLTTGAGNPVGDKLNVITVGPRGPLLVQDVVFTDEMAHFDRERIPERVVHAKGAGAFGYFEVTHDITKYSKAKVFEHIGKKTPIAVRFSTVAGESGSADTVRDPRGFAVKFYTEDGNWDLVGNNTPIFFIRDPILFPSFIHSQKRNPQTHLKDPDMVWDFWSLRPESLHQVSFLFSDRGIPDGHRHMNGYGSHTFKLVNANGEAVYCKFHYKTDQGIKNLSVEDAARLSQEDPDYGIRDLFNAIATGKYPSWTFYIQVMTFNQAETFPFNPFDLTKVWPHKDYPLIPVGKLVLNRNPVNYFAEVEQIAFDPSNMPPGIEASPDKMLQGRLFAYPDTHRHRLGPNYLHIPVNCPYRARVANYQRDGPMCMQDNQGGAPNYYPNSFGAPEQQPSALEHSIQYSGEVRRFNTANDDNVTQVRAFYVNVLNEEQRKRLCENIAGHLKDAQIFIQKKAVKNFTEVHPDYGSHIQALLDKYNAEKPKNAIHTFVQSGSHLAAREKANL", "binding": "binds"}, {"binder": "peroxiredoxin 2 (PRDX2) (protein, UniProt P32119 1-198) MASGNARIGKPAPDFKATAVVDGAFKEVKLSDYKGKYVVLFFYPLDFTFVCPTEIIAFSNRAEDFRKLGCEVLGVSVDSQFTHLAWINTPRKEGGLGPLNIPLLADVTRRLSEDYGVLKTDEGIAYRGLFIIDGKGVLRQITVNDLPVGRSVDEALRLVQAFQYTDEHGEVCPAGWKPGSDTIKPNVDDSKEYFSKHN", "binding": "binds"}, {"binder": "TXN (protein, UniProt P10599 1-105) MVKQIESKTAFQEALDAAGDKLVVVDFSATWCGPCKMIKPFFHSLSEKYSNVIFLEVDVDDCQDVASECEVKCMPTFQFFKKGQKVGEFSGANKEKLEATINELV", "binding": "binds"}, {"binder": "GPX8 (protein, UniProt Q8TED1 1-209) MEPLAAYPLKCSGPRAKVFAVLLSIVLCTVTLFLLQLKFLKPKINSFYAFEVKDAKGRTVSLEKYKGKVSLVVNVASDCQLTDRNYLGLKELHKEFGPSHFSVLAFPCNQFGESEPRPSKEVESFARKNYGVTFPIFHKIKILGSEGEPAFRFLVDSSKKEPRWNFWKYLVNPEGQVVKFWKPEEPIEVIRPDIAALVRQVIIKKKEDL", "binding": "binds"}, {"binder": "PRIM2 (a DNA primase subunit) (protein, UniProt P49643 1-509) MEFSGRKWRKLRLAGDQRNASYPHCLQFYLQPPSENISLIEFENLAIDRVKLLKSVENLGVSYVKGTEQYQSKLESELRKLKFSYRENLEDEYEPRRRDHISHFILRLAYCQSEELRRWFIQQEMDLLRFRFSILPKDKIQDFLKDSQLQFEAISDEEKTLREQEIVASSPSLSGLKLGFESIYKIPFADALDLFRGRKVYLEDGFAYVPLKDIVAIILNEFRAKLSKALALTARSLPAVQSDERLQPLLNHLSHSYTGQDYSTQGNVGKISLDQIDLLSTKSFPPCMRQLHKALRENHHLRHGGRMQYGLFLKGIGLTLEQALQFWKQEFIKGKMDPDKFDKGYSYNIRHSFGKEGKRTDYTPFSCLKIILSNPPSQGDYHGCPFRHSDPELLKQKLQSYKISPGGISQILDLVKGTHYQVACQKYFEMIHNVDDCGFSLNHPNQFFCESQRILNGGKDIKKEPIQPETPQPKPSVQKTKDASSALASLNSSLEMDMEGLEDYFSEDS", "binding": "binds"}, {"binder": "GPX1 (protein, UniProt P07203 1-203) MCAARLAAAAAAAQSVYAFSARPLAGGEPVSLGSLRGKVLLIENVASLUGTTVRDYTQMNELQRRLGPRGLVVLGFPCNQFGHQENAKNEEILNSLKYVRPGGGFEPNFMLFEKCEVNGAGAHPLFAFLREALPAPSDDATALMTDPKLITWSPVCRNDVAWNFEKFLVGPDGVPLRRYSRRFQTIDIEPDIEALLSQGPSCA", "binding": "no binding"}]}]}
